PubChem BioAssay AID743454 | Peter MacCallum Cancer Centre | 2014

Purpose: 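Search for knock-downs that restore vorinostat killing in resistant colon cancer cells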 (primary screen)
Cell system: human HCT116-VR colon cancer cells, selected for vorinostat resistance
Reagents: siRNA pool against human genes, 40 nM siRNA pool
Timing: vorinostat for 24 h, read-out about 72 h after transfection
Challenge: vorinostat at 2.5 µM final
Detection: 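Cell viability by CellTiter-Fluor and caspase 3/7 activity by luminescence, each scaled to mock wells per plate, duplicates averaged, then robust z-scored over all plates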
Reading the numbers: viability robust z-score: higher = more viable cells than screen typical; caspase robust z-score: higher = more caspase 3/7 activity than screen typical
Call rule: 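Hits are knock-downs in viability class RV1/RV2 or caspase class CA1/CA2, excluding ones that killed cells in the no-drug cell-count arm; hits then retested with single siRNAs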
Here is an unselected part of about 18,000 reagents tested. Of all reagents, 450 (2.5%) are marked active. 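Single biological run; no consistent viability z cut-off exists, so the class columns, not z-scores, define the calls.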 A number with no mark means an inactive call.

Gene,viability hit class,caspase hit class,viability robust z-score,caspase robust z-score
ALDH5A1,no change,no change,-0.02,-0.43
SYCP2L,no change,no change,-0.25,0.44
MRGPRX1,no change,no change,0.72,-0.68
ZNF784,no change,no change,-1.82,3.94
TPRX1,no change,no change,0.46,-0.26
RCHY1,no change,no change,-1.5,-0.27
LENG8,no change,no change,0.55,0.9
XKR4,no change,no change,0.68,-0.18
ANGPT1,no change (active),CA2 (caspase activation),-2.55,7.61
EBLN2,no change,no change,0.12,-0.27
PHIP,no change,no change,-0.56,0.87
CPT1A,no change,no change,1.42,-0.33
SSNA1,no change,no change,-0.58,-0.66
CST4,no change,no change,0.28,-1.17
PXMP4,no change,no change,1.55,0.64
NUP93,RV2 (reduced viability) (active),no change,-3.3,2.56
SUZ12,no change,no change,-0.88,-0.06
PIMREG,no change,no change,1.05,-0.27
JAK2,no change,no change,-3.7,1.34
GRAMD1C,no change,no change,1.48,0.3
PSMA7,no change (active),CA2 (caspase activation),-4.21,7.52
HID1,no change,no change,-0.38,-0.52
TSPOAP1,no change,no change,-0.73,2.21
